Experimental data reported in the supplement of paper PMC10849652.
This is one part of the list.

The chains behind the UniProt entries cited, without tags or fusion partners. Where a name states a change or a piece, a line headed by the entry shows the natural chain unless it says otherwise.
UniProt P68371, whole entry, looked up: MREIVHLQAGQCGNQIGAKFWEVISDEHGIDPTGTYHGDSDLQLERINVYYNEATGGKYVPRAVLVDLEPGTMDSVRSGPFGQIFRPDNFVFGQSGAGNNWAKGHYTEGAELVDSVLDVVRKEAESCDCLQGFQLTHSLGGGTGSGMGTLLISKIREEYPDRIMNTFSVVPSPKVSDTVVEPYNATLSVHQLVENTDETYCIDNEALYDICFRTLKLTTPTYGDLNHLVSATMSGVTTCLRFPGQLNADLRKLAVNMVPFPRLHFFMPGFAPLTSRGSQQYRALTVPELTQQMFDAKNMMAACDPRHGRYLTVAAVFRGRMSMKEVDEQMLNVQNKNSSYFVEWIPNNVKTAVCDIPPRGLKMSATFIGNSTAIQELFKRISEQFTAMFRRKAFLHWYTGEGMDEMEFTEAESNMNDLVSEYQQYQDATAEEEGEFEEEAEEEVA
UniProt Q15631: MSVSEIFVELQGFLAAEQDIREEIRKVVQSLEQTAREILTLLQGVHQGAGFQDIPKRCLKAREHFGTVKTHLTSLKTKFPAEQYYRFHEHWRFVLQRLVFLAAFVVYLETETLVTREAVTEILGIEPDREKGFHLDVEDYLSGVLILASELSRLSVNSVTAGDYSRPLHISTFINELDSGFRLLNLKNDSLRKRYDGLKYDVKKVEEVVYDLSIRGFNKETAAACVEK
UniProt O14530: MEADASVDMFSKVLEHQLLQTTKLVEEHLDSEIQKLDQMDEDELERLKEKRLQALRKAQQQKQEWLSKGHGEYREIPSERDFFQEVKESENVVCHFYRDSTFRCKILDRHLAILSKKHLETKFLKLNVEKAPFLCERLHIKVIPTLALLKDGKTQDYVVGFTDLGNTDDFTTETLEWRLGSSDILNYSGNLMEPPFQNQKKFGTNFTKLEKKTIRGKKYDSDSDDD
UniProt P62253: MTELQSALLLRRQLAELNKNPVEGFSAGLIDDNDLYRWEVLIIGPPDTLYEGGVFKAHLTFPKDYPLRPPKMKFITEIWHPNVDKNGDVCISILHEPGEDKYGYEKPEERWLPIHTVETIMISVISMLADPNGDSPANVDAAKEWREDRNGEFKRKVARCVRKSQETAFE
UniProt Q9BUF5, whole entry, looked up: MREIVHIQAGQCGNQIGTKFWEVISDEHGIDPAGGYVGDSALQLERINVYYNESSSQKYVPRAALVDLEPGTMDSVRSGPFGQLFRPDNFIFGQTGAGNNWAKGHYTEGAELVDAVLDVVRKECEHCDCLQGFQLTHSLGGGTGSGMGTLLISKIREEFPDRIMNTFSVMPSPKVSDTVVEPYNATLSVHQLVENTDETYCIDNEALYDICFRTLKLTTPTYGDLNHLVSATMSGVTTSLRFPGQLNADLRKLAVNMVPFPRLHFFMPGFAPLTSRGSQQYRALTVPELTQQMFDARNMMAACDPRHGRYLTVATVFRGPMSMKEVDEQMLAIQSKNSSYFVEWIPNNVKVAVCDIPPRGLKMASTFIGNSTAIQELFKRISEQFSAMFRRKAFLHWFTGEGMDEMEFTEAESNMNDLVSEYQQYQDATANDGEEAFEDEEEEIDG
UniProt Q9H832: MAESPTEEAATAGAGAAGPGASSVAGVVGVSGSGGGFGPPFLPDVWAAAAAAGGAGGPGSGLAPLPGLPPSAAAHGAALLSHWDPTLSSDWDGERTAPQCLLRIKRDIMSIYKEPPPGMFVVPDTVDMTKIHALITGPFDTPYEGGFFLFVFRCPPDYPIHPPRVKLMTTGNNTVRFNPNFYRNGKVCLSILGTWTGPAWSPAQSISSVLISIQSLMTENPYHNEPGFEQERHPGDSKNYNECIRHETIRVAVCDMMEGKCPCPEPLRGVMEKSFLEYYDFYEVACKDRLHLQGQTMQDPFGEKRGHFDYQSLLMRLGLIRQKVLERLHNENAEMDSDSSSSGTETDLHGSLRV
UniProt Q13454: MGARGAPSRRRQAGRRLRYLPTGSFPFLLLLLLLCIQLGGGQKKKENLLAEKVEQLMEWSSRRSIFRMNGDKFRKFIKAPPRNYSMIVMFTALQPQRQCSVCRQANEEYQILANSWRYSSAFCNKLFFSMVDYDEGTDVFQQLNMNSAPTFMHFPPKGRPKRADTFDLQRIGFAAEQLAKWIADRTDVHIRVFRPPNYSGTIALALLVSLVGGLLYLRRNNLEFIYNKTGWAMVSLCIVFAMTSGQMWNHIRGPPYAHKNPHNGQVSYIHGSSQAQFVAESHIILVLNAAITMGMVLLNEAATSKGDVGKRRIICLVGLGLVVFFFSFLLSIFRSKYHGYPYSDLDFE
UniProt Q9BSL1: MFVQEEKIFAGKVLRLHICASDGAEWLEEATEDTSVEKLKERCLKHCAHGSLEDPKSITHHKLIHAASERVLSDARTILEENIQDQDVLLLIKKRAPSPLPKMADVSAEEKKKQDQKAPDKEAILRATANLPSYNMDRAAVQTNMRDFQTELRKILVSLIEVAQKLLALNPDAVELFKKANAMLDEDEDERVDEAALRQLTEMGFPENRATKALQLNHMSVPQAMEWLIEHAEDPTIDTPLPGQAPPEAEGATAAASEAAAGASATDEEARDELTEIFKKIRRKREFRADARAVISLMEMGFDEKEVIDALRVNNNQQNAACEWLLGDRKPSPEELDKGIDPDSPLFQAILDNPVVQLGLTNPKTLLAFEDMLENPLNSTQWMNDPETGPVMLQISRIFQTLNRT
UniProt Q99598: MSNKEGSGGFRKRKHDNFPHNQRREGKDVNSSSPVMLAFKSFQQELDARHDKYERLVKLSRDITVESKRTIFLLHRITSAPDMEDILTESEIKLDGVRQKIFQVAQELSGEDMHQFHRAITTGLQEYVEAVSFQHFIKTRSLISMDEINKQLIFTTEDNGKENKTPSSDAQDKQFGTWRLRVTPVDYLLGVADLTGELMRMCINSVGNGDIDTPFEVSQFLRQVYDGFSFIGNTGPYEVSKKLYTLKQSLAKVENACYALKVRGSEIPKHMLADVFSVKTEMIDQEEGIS
UniProt Q16222: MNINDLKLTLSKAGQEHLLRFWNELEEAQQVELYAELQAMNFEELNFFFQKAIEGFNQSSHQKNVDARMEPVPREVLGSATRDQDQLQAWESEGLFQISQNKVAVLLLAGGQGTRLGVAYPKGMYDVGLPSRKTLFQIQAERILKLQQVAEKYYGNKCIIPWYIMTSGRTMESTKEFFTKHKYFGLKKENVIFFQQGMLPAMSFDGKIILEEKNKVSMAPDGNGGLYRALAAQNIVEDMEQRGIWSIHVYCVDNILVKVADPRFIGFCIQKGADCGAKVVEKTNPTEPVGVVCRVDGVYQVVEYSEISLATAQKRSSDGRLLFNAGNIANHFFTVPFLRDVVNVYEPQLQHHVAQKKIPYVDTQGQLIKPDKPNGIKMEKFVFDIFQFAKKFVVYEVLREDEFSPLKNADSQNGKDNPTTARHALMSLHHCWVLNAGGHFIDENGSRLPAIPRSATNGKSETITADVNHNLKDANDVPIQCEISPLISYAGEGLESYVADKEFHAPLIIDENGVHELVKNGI
UniProt Q969M7: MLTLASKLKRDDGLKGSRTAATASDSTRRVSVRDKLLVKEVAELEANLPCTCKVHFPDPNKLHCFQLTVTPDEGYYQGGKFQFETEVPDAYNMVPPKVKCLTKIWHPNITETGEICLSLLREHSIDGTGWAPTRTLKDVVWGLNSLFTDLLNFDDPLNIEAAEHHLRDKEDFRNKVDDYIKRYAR
UniProt Q8N5M4: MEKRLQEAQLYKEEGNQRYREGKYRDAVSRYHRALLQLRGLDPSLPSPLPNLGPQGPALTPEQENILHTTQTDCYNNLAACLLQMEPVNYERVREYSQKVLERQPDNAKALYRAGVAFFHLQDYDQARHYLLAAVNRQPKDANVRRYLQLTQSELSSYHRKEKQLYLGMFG
UniProt Q9UBT2: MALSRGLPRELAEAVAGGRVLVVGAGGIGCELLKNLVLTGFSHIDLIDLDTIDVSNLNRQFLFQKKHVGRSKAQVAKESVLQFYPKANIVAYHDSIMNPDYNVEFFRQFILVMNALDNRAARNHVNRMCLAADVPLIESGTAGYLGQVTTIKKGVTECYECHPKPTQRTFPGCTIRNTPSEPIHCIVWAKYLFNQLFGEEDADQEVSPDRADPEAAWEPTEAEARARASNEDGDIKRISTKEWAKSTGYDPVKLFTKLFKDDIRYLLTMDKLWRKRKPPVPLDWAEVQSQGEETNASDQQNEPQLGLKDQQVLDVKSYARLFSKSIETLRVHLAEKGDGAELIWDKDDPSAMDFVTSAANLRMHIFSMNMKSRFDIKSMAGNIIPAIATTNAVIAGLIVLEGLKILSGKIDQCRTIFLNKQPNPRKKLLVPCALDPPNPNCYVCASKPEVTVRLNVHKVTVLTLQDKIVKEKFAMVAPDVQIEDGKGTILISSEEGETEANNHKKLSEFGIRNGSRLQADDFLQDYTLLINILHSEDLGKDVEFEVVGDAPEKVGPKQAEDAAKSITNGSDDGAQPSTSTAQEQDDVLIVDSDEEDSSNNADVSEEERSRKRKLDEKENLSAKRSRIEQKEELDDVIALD
UniProt Q9H4B7, whole entry, looked up: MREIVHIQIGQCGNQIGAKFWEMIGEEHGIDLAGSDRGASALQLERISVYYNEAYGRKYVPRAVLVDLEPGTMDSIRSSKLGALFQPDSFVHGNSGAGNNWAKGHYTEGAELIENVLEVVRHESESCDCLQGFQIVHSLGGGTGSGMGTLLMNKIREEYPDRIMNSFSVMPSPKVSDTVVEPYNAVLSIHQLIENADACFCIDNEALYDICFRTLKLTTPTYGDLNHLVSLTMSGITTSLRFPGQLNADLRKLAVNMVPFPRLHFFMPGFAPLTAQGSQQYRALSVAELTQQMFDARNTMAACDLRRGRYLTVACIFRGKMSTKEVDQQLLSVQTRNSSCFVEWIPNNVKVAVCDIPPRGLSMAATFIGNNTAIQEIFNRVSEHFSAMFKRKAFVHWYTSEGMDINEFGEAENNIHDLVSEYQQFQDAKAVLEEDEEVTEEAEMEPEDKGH
UniProt Q9NNW7, whole entry, looked up: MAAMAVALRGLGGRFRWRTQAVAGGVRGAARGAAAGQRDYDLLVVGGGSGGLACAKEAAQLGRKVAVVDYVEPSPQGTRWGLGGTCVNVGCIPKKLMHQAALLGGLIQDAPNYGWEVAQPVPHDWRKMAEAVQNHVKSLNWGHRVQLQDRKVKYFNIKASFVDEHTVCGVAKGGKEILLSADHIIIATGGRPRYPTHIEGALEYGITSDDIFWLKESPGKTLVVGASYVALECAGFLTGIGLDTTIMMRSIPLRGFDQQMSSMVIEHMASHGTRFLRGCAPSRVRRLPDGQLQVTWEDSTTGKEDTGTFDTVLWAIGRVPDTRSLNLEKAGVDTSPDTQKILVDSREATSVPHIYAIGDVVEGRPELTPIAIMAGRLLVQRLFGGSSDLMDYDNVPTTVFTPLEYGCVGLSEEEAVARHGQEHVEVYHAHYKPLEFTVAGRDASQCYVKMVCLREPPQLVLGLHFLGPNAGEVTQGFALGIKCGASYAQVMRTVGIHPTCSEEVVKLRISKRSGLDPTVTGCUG
UniProt Q9BQE3, whole entry, looked up: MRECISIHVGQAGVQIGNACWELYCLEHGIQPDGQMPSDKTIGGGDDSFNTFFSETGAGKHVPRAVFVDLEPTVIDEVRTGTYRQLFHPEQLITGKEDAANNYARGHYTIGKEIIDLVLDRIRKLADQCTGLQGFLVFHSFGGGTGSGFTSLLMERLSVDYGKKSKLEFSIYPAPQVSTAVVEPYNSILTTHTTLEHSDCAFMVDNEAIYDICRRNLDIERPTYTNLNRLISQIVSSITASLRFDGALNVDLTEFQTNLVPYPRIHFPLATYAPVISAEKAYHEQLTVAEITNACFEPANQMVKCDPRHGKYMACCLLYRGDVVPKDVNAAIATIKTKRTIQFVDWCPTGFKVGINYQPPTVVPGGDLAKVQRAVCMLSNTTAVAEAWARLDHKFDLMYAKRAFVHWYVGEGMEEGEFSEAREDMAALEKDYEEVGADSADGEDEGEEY

Tests used:
Test in all cases: log2 fold change, soluble protein after heating vs DMSO (PISA); higher = thermal stabilisation; K562 cells, 10 uM, 30 min; active = over 0.2 and 3.5 SD of the protein, either way, in both replicates (recomputed)
[1] = compound: CC1=C(C=C(C=C1)NC(=O)C2=CC(=CC=C2)C(C)(C)C#N)NC3=CC4=C(C=C3)N=CN(C4=O)C
Summary of the method: (§1)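 K562 cells at 2×10^6 cells/mL were treated with 10 μM compound for 30 min. Aliquots were heated for 3 min across 48°C-58°C, pooled, and extracted in PBS with 0.5% NP-40 at 4°C; soluble protein was the supernatant after 21,000xg for 90 min. Soluble protein was quantified by TMTpro 16plex LC-MS/MS with channel sums equalised, and reported as log2 fold change in thermal stability against DMSO controls, with values from duplicates.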

[2] = compound: CC1=C(C=C(C=C1)NC(=O)C2=CC(=CC=C2)N(C)C)NC(=O)C3=CC=C(C=C3)O
Summary of the method: as §1

[3] = compound: CC1=CC=C(C=C1)SC2=C3C=C(SC3=CN=C2)C(=O)N
Summary of the method: as §1

[4] = compound: CC1=NC(=CC=C1)C2=C(N=C(N2)C(C)(C)C)C3=CC4=NC=CN=C4C=C3
Summary of the method: as §1

[5] = compound: CCCCN(Cc1ccc(C(=O)NO)cc1)C(=O)Nc1ccccc1 [Nexturastat A]
Summary of the method: as §1

[6] = compound: CCCS(=O)(=O)Nc1ccc(F)c(C(=O)c2c[nH]c3ncc(-c4ccc(Cl)cc4)cc23)c1F [vemurafenib]
Summary of the method: as §1

[7] = compound: CCCS(=O)(=O)Nc1ccc(F)c(C(=O)c2c[nH]c3ncc(Cl)cc23)c1F
Summary of the method: as §1

[8] = compound: CCCc1cc(C)[nH]c(=O)c1CNC(=O)c1cc(-c2ccnc(N3CCN(C)CC3)c2)cc2c1cnn2C(C)C
Summary of the method: as §1

[9] = compound: CCN(CC)Cc1ccc2cc(COC(=O)Nc3ccc(C(=O)NO)cc3)ccc2c1 [givinostat]
Summary of the method: as §1

[10] = compound: CCN(CCCOc1ccc2c(Nc3cc(CC(=O)Nc4cccc(F)c4)[nH]n3)ncnc2c1)CCOP(=O)(O)O [barasertib]
Summary of the method: as §1

[11] = compound: CC[C@@H]1C(=O)N(C)c2cnc(Nc3ccc(C(=O)NC4CCN(C)CC4)cc3OC)nc2N1C1CCCC1
Summary of the method: as §1

[12] = compound: CC[C@@H]1C(=O)N(C)c2cnc(Nc3ccc(C(=O)N[C@H]4CC[C@H](N5CCN(CC6CC6)CC5)CC4)cc3OC)nc2N1C(C)C [volasertib]
Summary of the method: as §1

[13] = compound: CC[C@H](C)N1C=C(C2=C(C=C(C=C21)C3=CN=C(C=C3)N4CCNCC4)C(=O)NCC5=C(C=C(NC5=O)C)C)C
Summary of the method: as §1

[14] = compound: CC[C@H](C)[C@@H](C(=O)N[C@@H]([C@@H](C)O)C(=O)N[C@@H](CC(C)C)C(=O)[C@]1(CO1)C)NC(=O)[C@H]([C@@H](C)CC)N(C)C(=O)C [epoxomicin]
Summary of the method: as §1

[15] = compound: CCn1c(C(=O)N(C2CC2)C2CC2)cc2c3c(ncn3C)c(Nc3cc(C)n(C)n3)nc21
Summary of the method: as §1

[16] = compound: CCn1cc(-c2ccnc3[nH]c(-c4cccc(CN(C)C)c4)cc23)c(-c2ccc(NC(=O)N(C)C)cc2)n1
Summary of the method: as §1

[17] = compound: CN(C)CC(=O)Nc1ccc2[nH]c(=O)c3ccccc3c2c1
Summary of the method: as §1

[18] = compound: CN(CCOC1=CC=C(C=C1)C[C@H]2C(=O)NC(=O)S2)C3=CC=CC=N3 (racemic) [rosiglitazone]
Summary of the method: as §1

[19] = compound: CN1C2=C(C3=C1C(=O)N(N=C3)CC4=CC(=CC=C4)N)SC(=C2)S(=O)C
Summary of the method: as §1

[20] = compound: CN1CCC(CNc2ccc3ncc(-c4cccc(OC(F)(F)F)c4)n3n2)CC1
Summary of the method: as §1

Measured: log2 fold change

TUBB4B (UniProt P68371)
inactive: [1] 0.032 | [2] 0.012 | [3] 0.028 | [4] 0.021 | [5] -0.086 | [6] 0 | [7] 0.026 | [8] -0.017 | [9] -0.063 | [10] -0.009 | [11] -0.032 | [12] 0.044 | [13] 0.007 | [14] 0.024 | [15] -0.01 | [16] 0.018 | [17] 0.011 | [18] 0.003 | [19] -0.043 | [20] -0.061

TSN (UniProt Q15631)
inactive: [1] 0.058 | [2] -0.02 | [3] 0.053 | [4] 0.032 | [5] -0.086 | [6] 0.099 | [7] 0.054 | [8] 0.087 | [9] -0.01 | [10] 0.001 | [11] 0.04 | [12] -0.014 | [13] -0.042 | [14] -0.032 | [15] -0.028 | [16] -0.033 | [17] 0.025 | [18] 0.011 | [19] -0.108 | [20] 0.03

TXNDC9 (UniProt O14530)
inactive: [1] 0.038 | [2] -0.008 | [3] 0.009 | [4] 0.009 | [5] -0.006 | [6] -0.031 | [7] -0.007 | [8] -0.025 | [9] -0.002 | [10] 0.001 | [11] -0.003 | [12] 0.148 | [13] 0.056 | [14] 0.021 | [15] -0.01 | [16] -0.024 | [17] -0.004 | [18] 0.019 | [19] 0.003 | [20] -0.002

UBE2G1 (UniProt P62253)
inactive: [1] -0.024 | [2] 0.045 | [3] 0.04 | [4] 0.003 | [5] -0.132 | [6] 0.001 | [7] 0.08 | [8] 0.045 | [9] -0.042 | [10] 0.033 | [11] -0.032 | [12] -0.066 | [13] 0.041 | [14] -0.066 | [15] 0.033 | [16] 0.02 | [17] -0.002 | [18] 0.089 | [19] -0.076 | [20] -0.047

TUBB6 (UniProt Q9BUF5)
inactive: [1] -0.065 | [2] 0 | [3] 0.021 | [4] 0.005 | [5] -0.022 | [6] -0.005 | [7] 0.015 | [8] -0.01 | [9] -0.016 | [10] 0.002 | [11] -0.013 | [12] 0.032 | [13] 0.013 | [14] 0.021 | [15] -0.019 | [16] -0.017 | [17] -0.013 | [18] -0.017 | [19] -0.044 | [20] -0.091

UBE2Z (UniProt Q9H832)
inactive: [1] 0.003 | [2] 0.002 | [3] 0.001 | [4] -0.002 | [5] -0.05 | [6] 0.009 | [7] 0.052 | [8] -0.012 | [9] 0.024 | [10] 0.026 | [11] -0.014 | [12] -0.027 | [13] 0.012 | [14] 0.052 | [15] 0 | [16] -0.03 | [17] 0.018 | [18] 0.018 | [19] -0.044 | [20] 0.022

TUSC3 isoform 2 (UniProt Q13454)
inactive: [1] -0.04 | [2] 0.05 | [3] -0.026 | [4] 0.013 | [5] 0.137 | [6] 0.009 | [7] -0.005 | [8] 0.032 | [9] 0.042 | [10] -0.015 | [11] 0.043 | [12] 0.01 | [13] -0.002 | [14] 0.003 | [15] 0.036 | [16] 0.079 | [17] -0.021 | [18] -0.009 | [19] 0.115 | [20] 0.023

UBAC1 (UniProt Q9BSL1)
inactive: [1] -0.003 | [2] -0.01 | [3] 0.005 | [4] 0.035 | [5] -0.024 | [6] 0.032 | [7] 0.04 | [8] 0.032 | [9] 0.032 | [10] 0.019 | [11] -0.034 | [12] -0.167 | [13] 0.025 | [14] 0.118 | [15] -0.009 | [16] -0.041 | [17] 0.009 | [18] 0.034 | [19] -0.061 | [20] 0.034

TSNAX (UniProt Q99598)
inactive: [1] -0.019 | [2] -0.012 | [3] -0.01 | [4] 0.011 | [5] -0.004 | [6] -0.011 | [7] 0.007 | [8] -0.027 | [9] -0.037 | [10] -0.009 | [11] 0.037 | [12] 0.079 | [13] -0.029 | [14] 0.014 | [15] 0.006 | [16] -0.022 | [17] -0.006 | [18] -0.005 | [19] -0.058 | [20] 0.01

UAP1 (UniProt Q16222)
inactive: [1] -0.006 | [2] -0.012 | [3] 0.019 | [4] 0.03 | [5] -0.072 | [6] -0.023 | [7] 0.005 | [8] -0.046 | [9] -0.057 | [10] 0.021 | [11] -0.026 | [12] 0.016 | [13] 0.011 | [14] 0.033 | [15] -0.015 | [16] -0.066 | [17] -0.005 | [18] 0.021 | [19] -0.089 | [20] -0.029

UBE2F isoform 2 (UniProt Q969M7)
inactive: [1] 0.031 | [2] -0.011 | [3] -0.041 | [4] 0.004 | [5] 0.001 | [6] 0 | [7] 0.005 | [8] 0.001 | [9] -0.026 | [10] -0.023 | [11] -0.03 | [12] -0.055 | [13] 0.046 | [14] -0.012 | [15] -0.131 | [16] -0.104 | [17] -0.058 | [18] -0.035 | [19] -0.114 | [20] -0.026

TTC9C (UniProt Q8N5M4)
inactive: [1] 0.018 | [2] -0.054 | [3] 0.024 | [4] 0.07 | [5] 0.012 | [6] 0.131 | [7] 0.031 | [8] -0.001 | [9] 0.053 | [10] -0.039 | [11] -0.047 | [12] -0.156 | [13] 0.031 | [14] -0.011 | [15] -0.011 | [16] -0.092 | [17] 0.065 | [18] 0.048 | [19] -0.038 | [20] -0.024

Fetched one by one from the entries so far (2):
UBE2Z (UniProt Q9H832)
inactive: [1] 0.003 | [2] 0.002 | [3] 0.001 | [4] -0.002 | [5] -0.05 | [6] 0.009 | [7] 0.052 | [8] -0.012 | [9] 0.024 | [10] 0.026 | [11] -0.014 | [12] -0.027 | [13] 0.012 | [14] 0.052 | [15] 0 | [16] -0.03 | [17] 0.018 | [18] 0.018 | [19] -0.044 | [20] 0.022

UBAC1 (UniProt Q9BSL1)
inactive: [1] -0.003 | [2] -0.01 | [3] 0.005 | [4] 0.035 | [5] -0.024 | [6] 0.032 | [7] 0.04 | [8] 0.032 | [9] 0.032 | [10] 0.019 | [11] -0.034 | [12] -0.167 | [13] 0.025 | [14] 0.118 | [15] -0.009 | [16] -0.041 | [17] 0.009 | [18] 0.034 | [19] -0.061 | [20] 0.034

(next part)

UBA2 (UniProt Q9UBT2)
inactive: [1] 0.067 | [2] -0.023 | [3] -0.011 | [4] 0.035 | [5] -0.063 | [6] 0.026 | [7] 0.046 | [8] -0.036 | [9] -0.034 | [10] 0.025 | [11] -0.015 | [12] -0.017 | [13] -0.003 | [14] 0.048 | [15] 0.004 | [16] -0.047 | [17] 0.009 | [18] 0.026 | [19] -0.074 | [20] 0.077

TUBB1 (UniProt Q9H4B7)
inactive: [1] 0.042 | [2] -0.061 | [3] 0 | [4] 0.103 | [5] -0.064 | [6] 0.028 | [7] -0.037 | [8] -0.002 | [9] -0.027 | [10] -0.012 | [11] -0.037 | [12] 0.083 | [13] 0.051 | [14] -0.016 | [15] 0.008 | [16] -0.054 | [17] 0.012 | [18] 0.028 | [19] -0.063 | [20] -0.083

TXNRD2 (UniProt Q9NNW7)
inactive: [1] 0.055 | [2] -0.006 | [3] 0.099 | [4] 0.038 | [5] 0.017 | [6] -0.042 | [7] -0.016 | [8] -0.029 | [9] -0.105 | [10] -0.017 | [11] -0.036 | [12] -0.019 | [13] 0.129 | [14] -0.007 | [15] -0.048 | [16] -0.082 | [17] 0.01 | [18] 0.046 | [19] -0.054 | [20] 0.095

TUBA1C (UniProt Q9BQE3)
inactive: [1] 0.053 | [2] 0.026 | [3] 0.016 | [4] 0.034 | [5] -0.025 | [6] -0.005 | [7] -0.016 | [8] 0.007 | [9] -0.01 | [10] -0.013 | [11] -0.023 | [12] 0.013 | [13] -0.016 | [14] 0.029 | [15] -0.025 | [16] -0.058 | [17] 0.023 | [18] 0.007 | [19] -0.069 | [20] -0.116
